Data on one substance can be found in publication PMC5408348, “The biochemical properties of the two Arabidopsis thaliana isochorismate synthases” (Biochemical Journal, 2017).

Chains of the proteins cited; added tags and fusions are not shown. Residues count along the entry.
UniProt Q9S7H8, residues 46-569: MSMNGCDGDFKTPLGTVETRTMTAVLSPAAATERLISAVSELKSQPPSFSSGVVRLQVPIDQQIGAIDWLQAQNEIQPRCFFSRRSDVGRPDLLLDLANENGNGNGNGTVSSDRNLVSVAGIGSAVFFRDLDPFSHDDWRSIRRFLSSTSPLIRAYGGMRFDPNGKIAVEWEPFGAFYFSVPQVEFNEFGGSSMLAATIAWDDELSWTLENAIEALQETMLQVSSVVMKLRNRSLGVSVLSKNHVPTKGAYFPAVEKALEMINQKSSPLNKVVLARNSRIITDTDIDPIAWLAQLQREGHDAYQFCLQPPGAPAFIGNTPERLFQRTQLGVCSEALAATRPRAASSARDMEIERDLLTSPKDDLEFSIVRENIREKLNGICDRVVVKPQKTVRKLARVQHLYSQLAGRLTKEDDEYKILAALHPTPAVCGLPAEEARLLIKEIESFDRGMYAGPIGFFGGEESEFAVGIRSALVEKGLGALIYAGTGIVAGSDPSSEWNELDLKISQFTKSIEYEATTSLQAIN

In this test the target is His6-AtICS1 (Arabidopsis thaliana isochorismate synthase 1, hexahistidine fusion, without the transit peptide) (Arabidopsis thaliana) (UniProt Q9S7H8). Nature of the test: SEC; HiLoad 16/60 Superdex 200 preparative grade column with standards; 50 mM Tris-HCl pH 8.0, 500 µM EDTA, 10% v/v glycerol, 1 mM DTT; 4°C; 0.5 ml/min; both purified. For orientation: In gel filtration, larger molecules generally elute earlier.

Results are given in words; binding and its absence hold for the method and conditions named.

As to “His6-AtICS1 (Arabidopsis thaliana isochorismate synthase 1, hexahistidine fusion, without the transit peptide) (from UniProt Q9S7H8 46-569) (enzyme)”, the binding result is given as “no binding”.
